From PMC8863821
Results are given in words; binding and its absence hold for the method and conditions named. Binding seen in cells or lysates may run through a third protein. Some entries that bind do so weakly or less than the wild type.

Protein sequences, listed by entry. Tags and fused reporters are not part of them.
UniProt O43809: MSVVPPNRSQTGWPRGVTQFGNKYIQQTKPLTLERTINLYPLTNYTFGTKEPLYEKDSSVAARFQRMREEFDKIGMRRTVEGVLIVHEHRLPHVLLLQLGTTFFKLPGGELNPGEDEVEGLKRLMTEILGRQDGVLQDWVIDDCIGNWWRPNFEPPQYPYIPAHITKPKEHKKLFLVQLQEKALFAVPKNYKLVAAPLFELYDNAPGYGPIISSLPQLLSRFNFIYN
UniProt P51114: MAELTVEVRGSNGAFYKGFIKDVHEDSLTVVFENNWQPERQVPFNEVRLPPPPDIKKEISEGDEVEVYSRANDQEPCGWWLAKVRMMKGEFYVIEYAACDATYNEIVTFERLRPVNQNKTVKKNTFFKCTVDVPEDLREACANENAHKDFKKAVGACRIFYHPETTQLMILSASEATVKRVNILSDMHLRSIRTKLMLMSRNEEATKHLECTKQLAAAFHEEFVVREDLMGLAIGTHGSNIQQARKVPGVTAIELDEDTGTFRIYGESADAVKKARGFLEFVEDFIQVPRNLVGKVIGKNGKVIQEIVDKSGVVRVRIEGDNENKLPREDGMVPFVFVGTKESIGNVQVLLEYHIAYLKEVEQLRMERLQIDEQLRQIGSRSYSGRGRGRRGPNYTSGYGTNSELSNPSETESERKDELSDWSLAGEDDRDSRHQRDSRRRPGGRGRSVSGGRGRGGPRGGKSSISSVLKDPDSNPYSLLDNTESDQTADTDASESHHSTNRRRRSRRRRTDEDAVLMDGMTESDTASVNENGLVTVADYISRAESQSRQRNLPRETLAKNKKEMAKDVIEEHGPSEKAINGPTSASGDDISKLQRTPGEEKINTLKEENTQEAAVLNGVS
UniProt Q16630: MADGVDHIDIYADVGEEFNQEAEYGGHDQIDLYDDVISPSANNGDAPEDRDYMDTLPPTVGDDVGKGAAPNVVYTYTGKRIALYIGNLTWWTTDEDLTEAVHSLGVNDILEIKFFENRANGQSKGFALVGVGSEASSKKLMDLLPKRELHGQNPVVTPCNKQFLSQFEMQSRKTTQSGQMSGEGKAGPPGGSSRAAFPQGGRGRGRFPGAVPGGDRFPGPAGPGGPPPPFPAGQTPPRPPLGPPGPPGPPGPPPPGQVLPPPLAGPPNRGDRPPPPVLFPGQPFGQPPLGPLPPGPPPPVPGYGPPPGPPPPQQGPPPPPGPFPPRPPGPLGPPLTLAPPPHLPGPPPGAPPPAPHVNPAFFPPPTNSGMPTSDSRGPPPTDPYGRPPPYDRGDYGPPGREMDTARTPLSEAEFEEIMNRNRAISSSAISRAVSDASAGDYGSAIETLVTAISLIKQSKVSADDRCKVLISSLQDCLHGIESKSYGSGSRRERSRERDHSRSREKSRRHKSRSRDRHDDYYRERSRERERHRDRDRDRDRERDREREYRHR

Experiments:
[1] = molecular target: cleavage factor Im 25 (CFIm25) (human (endogenous in T24)) (UniProt O43809); experiment: co-IP; co-IP of the CFIm25-interacting complex from T24 cells, western blot
[2] = molecular target: Fragile X-related gene 1 (FXR1) (human (endogenous in T24)) (UniProt P51114); experiment: co-IP; co-IP of the FXR1-interacting complex from T24 cells, western blot
[3] = molecular target: Fragile X-related gene 1 (FXR1) (human (endogenous in T24)) (UniProt P51114); experiment: co-IP; T24 cell lysates fractionated by 5-25% glycerol gradient sedimentation, then IP of FXR1 (anti-FXR1) across each fraction, western blot

| Substance | binding [1] | binding [2] | binding [3] |
| --- | --- | --- | --- |
| Fragile X-related gene 1 (FXR1) (from UniProt P51114 1-621) | binds | – | – |
| cleavage factor Im 68 (CFIm68) (from UniProt Q16630 1-551) | binds | binds | binds |
